The results in this text go back to the supplement of paper PMC12889115.

The list shows a part of the results. These are raw signals, not scaled to a control.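 Primary screen: polymyxin B was added at a level permeabilizing Salmonella outer membranes while sparing inner membranes. DMSO wells, both with and without polymyxin B, established maximum growth. Plate-to-plate variation meant each plate was ranked on its own, and the lowest-OD600 compounds were selected as hits.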

The test system of the experiment is Salmonella enterica serovar Typhimurium SL1344. Description: bacterial growth OD600 after 18 h with compound and polymyxin B; higher = more bacterial growth (less inhibition). To be noted: 50 µM, Mueller-Hinton broth.

Regarding `CN(C(=O)CCc1nnc(Cc2ccc(-c3ccccc3)cc2)o1)C1CCOCC1`, the “bacterial growth OD600” value (polymyxin B 1 µg/mL) was 0.762. Regarding `O=C(NCc1cccnc1)c1ccc(N2CCC(NCC3(N4CCOCC4)CCCCC3)CC2)cc1`, the “bacterial growth OD600” value (polymyxin B 0.75 µg/mL) turned out to be 0.827.

`Clc1ccc(CN2CCC(C3CCN(Cc4cccnc4)CC3)C2)cc1` (centres undefined): the “bacterial growth OD600” value (polymyxin B 0.75 µg/mL) worked out at 0.787. As to `CN(CCc1ccccc1)C(=O)c1cn(Cc2ccccc2Cl)nn1`, the “bacterial growth OD600” value (polymyxin B 1 µg/mL) was 0.807. Consider `CN(CCC1CCCCO1)C(=O)CC1(c2cccc(C(F)(F)F)c2)CC(=O)N(C2CC2)C1=O` (centres undefined), for which the “bacterial growth OD600” value (polymyxin B 0.75 µg/mL) was 0.808.

In the case of `COc1cccc(CNC(=O)CCC2CCCN(C(=O)CSc3ccccc3)C2)c1` (centres undefined), the “bacterial growth OD600” value (polymyxin B 1 µg/mL) was 0.717. Same read-out and setting: to `CC(=O)NCC1CCCN(Cc2cn(C)nc2-c2ccc(C3CCCCC3)cc2)C1` (centres undefined) belongs 0.894.

Turning to `O=C(N[C@H]1CCCCNC1=O)c1ccc(N2CCC(NCC3(N4CCOCC4)CCCC3)CC2)cc1`, the “bacterial growth OD600” value (polymyxin B 0.75 µg/mL) amounted to 0.899. On the same count and under the same terms, then `CCN(CC)C(=O)C1CCCN(C(=O)CC2(c3ccccc3Cl)CC(=O)N(CCOC)C2=O)C1` (centres undefined), with 0.841. Consider `CN(Cc1ccc(F)cc1)CC1(O)CCCN(CC(C)(C)C)C1=O` (centres undefined), for which, under “polymyxin B 1 µg/mL”, the “bacterial growth OD600” value amounted to 0.954.

Turning to `CCN1CCN(C2(C(=O)NCC(C)(C)CN(C)C)Cc3ccccc3C2)CC1`, the “bacterial growth OD600” value (polymyxin B 0.75 µg/mL) is 0.976. On to `O=C(CCCn1cncn1)N1CCCC(CCc2ccccc2C(F)(F)F)C1` (centres undefined), for which, where the note is “polymyxin B 1 µg/mL”, the “bacterial growth OD600” value worked out at 0.884. The same measure, in the same setting: then `Cc1cccnc1CC(C)NC(=O)c1coc(COc2cccc(F)c2)n1` (centres undefined), with 0.859; and `Cc1ccc(C(=O)N2CCC3(CCCN(Cc4ccccc4F)C3)C2)c(O)n1` (centres undefined), with 1.05. Still for that read-out and setting: to `CC(C)NCC1(O)CCCN(Cc2ccc(F)c(F)c2)C1=O` (centres undefined) belongs 1.01. With `COc1cccc(CCC2CCCN(C(=O)C3=NN(C)C(=O)CC3)C2)c1` (centres undefined), the “bacterial growth OD600” value (polymyxin B 0.75 µg/mL) was 0.817. Take `CCOC(=O)C1(CCc2ccccc2)CCCN(C(=O)CCC2=NNC(=O)CC2)C1` (centres undefined): the “bacterial growth OD600” value (polymyxin B 1 µg/mL) is 1.01. Still for that read-out and setting: to `COc1ccccc1OCc1cc(C(=O)NCc2ccc(C)s2)n[nH]1` belongs 0.867. As to `Cc1ccc(OCc2cc(C(=O)N(C)CCC(C)C)no2)cc1C`, the “bacterial growth OD600” value (polymyxin B 0.75 µg/mL) stood at 0.001.
